Test results as given in PubChem BioAssay AID248 (DTP/NCI, 2004).
The list is a part of this screen's results and no random one: it gathers some chemical classes. Other doses and runs of a compound may be missing. T/C: endpoint of the treated group in % of that of the vehicle group. Some entries give survivors of the animals treated and no T/C: the source files T/C as zero there, which appears to mark a toxic dose or a test without result, not a measured value. Some survivor counts are full or nearly so, which does not show that the dose was tolerated: the source hardly ever lists a survival T/C far under the control, and the zero likely stands for such cases as well. Counts of survivors are from the toxicity check (mostly the fifth day) where no day follows; animals may have died later. Schedules are NCI's codes, taken here to give the interval after Q, in days (D) or hours (H), and the number of doses after X. Some schedule codes hold Z or #, which are not explained here. Where survival is the endpoint, this PubChem deposit counts one and a half times the control or more as active, and values a quarter to a half above the control carry no call in these data; other NCI protocols may use other cut-offs. Some T/C values carry the count of animals alive at the toxicity check (mostly the fifth day); without a count or a note in brackets, all were alive then.

System: L1210 leukemia ip in BDF1 mice, survival T/C
Experiment: NCI In Vivo Anticancer Drug Screen. Data for tumor model L1210 Leukemia (intraperitoneal) in B6D2F1 (BDF1) mice
Settings: higher T/C = longer survival
[1] = T/C endpoint: mean survival time, dose: 40.0 mg/kg/injection, schedule: Q01DX Z (ip), vehicle: carboxymethylcellulose (CMC)
[2] = T/C endpoint: mean survival time, dose: 100.0 mg/kg/injection, schedule: Q04DX003 (ip), vehicle: Klucel (hydroxypropylcellulose) (HPC)
[3] = T/C endpoint: mean survival time, dose: 200.0 mg/kg/injection, schedule: Q04DX003 (ip), vehicle: Klucel (hydroxypropylcellulose) (HPC)
[4] = T/C endpoint: mean survival time, dose: 400.0 mg/kg/injection, schedule: Q04DX003 (ip), vehicle: Klucel (hydroxypropylcellulose) (HPC)

**Q.** What does the source list for `N/C(=N\[N+](=O)[O-])N(CCCl)N=O`?
**A.** T/C (T/C endpoint: mean survival time, dose: 5.0 mg/kg/injection, schedule: Q01DX Z (ip), vehicle: carboxymethylcellulose (CMC)): 114 % of control; T/C (T/C endpoint: mean survival time, dose: 10.0 mg/kg/injection, schedule: Q01DX Z (ip), vehicle: carboxymethylcellulose (CMC)): 90 % of control; T/C (T/C endpoint: mean survival time, dose: 12.0 mg/kg/injection, schedule: Q01DX Z (ip), vehicle: carboxymethylcellulose (CMC)): 130 % of control; T/C (T/C endpoint: mean survival time, dose: 18.0 mg/kg/injection, schedule: Q01DX Z (ip), vehicle: carboxymethylcellulose (CMC)): 120 % of control; T/C (T/C endpoint: mean survival time, dose: 20.0 mg/kg/injection, schedule: Q01DX Z (ip), vehicle: carboxymethylcellulose (CMC)): 100 % of control; T/C (T/C endpoint: mean survival time, dose: 27.0 mg/kg/injection, schedule: Q01DX Z (ip), vehicle: carboxymethylcellulose (CMC)): 139 % of control; T/C [1]: 91 % of control; survivor count [1]: 6 of 6

**Q.** For `COc1cc2c(c3oc4cccc(O)c4c(=O)c13)[C@@H]1C=CO[C@@H]1O2`, which T/C (T/C endpoint: mean survival time, dose: 3.75 mg/kg/injection, schedule: Q01DX009 (ip), vehicle: Klucel (hydroxypropylcellulose) (HPC)) is on record?
**A.** 119 % of control

**Q.** What about the T/C (T/C endpoint: mean survival time, dose: 7.5 mg/kg/injection, schedule: Q01DX009 (ip), vehicle: Klucel (hydroxypropylcellulose) (HPC)) of the same compound?
**A.** 110 % of control

**Q.** And the T/C (T/C endpoint: mean survival time, dose: 15.0 mg/kg/injection, schedule: Q01DX009 (ip), vehicle: Klucel (hydroxypropylcellulose) (HPC))?
**A.** 138 % of control

**Q.** What about the T/C (T/C endpoint: mean survival time, dose: 30.0 mg/kg/injection, schedule: Q01DX009 (ip), vehicle: Klucel (hydroxypropylcellulose) (HPC)) of the same compound?
**A.** 132 % of control

**Q.** And the T/C (T/C endpoint: mean survival time, dose: 50.0 mg/kg/injection, schedule: Q01DX001 (ip), vehicle: saline)?
**A.** 102 % of control

**Q.** And the T/C (T/C endpoint: mean survival time, dose: 60.0 mg/kg/injection, schedule: Q01DX009 (ip), vehicle: Klucel (hydroxypropylcellulose) (HPC))?
**A.** 165 % of control

**Q.** What about the T/C (T/C endpoint: mean survival time, dose: 100.0 mg/kg/injection, schedule: Q01DX001 (ip), vehicle: saline) of the same compound?
**A.** 107 % of control

**Q.** What about the T/C (T/C endpoint: mean survival time, dose: 200.0 mg/kg/injection, schedule: Q01DX001 (ip), vehicle: saline) of the same compound?
**A.** 130 % of control

**Q.** What about the T/C (T/C endpoint: median survival time, dose: 4.0 mg/kg/injection, schedule: Q01DX009 (ip), vehicle: saline) of the same compound?
**A.** 114 % of control

**Q.** What about the T/C (T/C endpoint: median survival time, dose: 8.0 mg/kg/injection, schedule: Q01DX009 (ip), vehicle: saline) of the same compound?
**A.** 128 % of control [5 of 6 alive]

**Q.** What about the T/C (T/C endpoint: median survival time, dose: 16.0 mg/kg/injection, schedule: Q01DX009 (ip), vehicle: saline) of the same compound?
**A.** 121 % of control

**Q.** And the T/C (T/C endpoint: median survival time, dose: 32.0 mg/kg/injection, schedule: Q01DX009 (ip), vehicle: saline)?
**A.** 157 % of control [5 of 6 alive]

**Q.** And the T/C (T/C endpoint: median survival time, dose: 64.0 mg/kg/injection, schedule: Q01DX009 (ip), vehicle: saline)?
**A.** 200 % of control [5 of 6 alive]

**Q.** What about the T/C (T/C endpoint: median survival time, dose: 128.0 mg/kg/injection, schedule: Q01DX009 (ip), vehicle: saline) of the same compound?
**A.** 135 % of control

**Q.** For `NNS(=O)(=O)c1ccc(N(CCCl)CCCl)cc1`, which T/C (T/C endpoint: mean survival time, dose: 100.0 mg/kg/injection, schedule: Q01DX001 (ip), vehicle: other) is on record?
**A.** 111 % of control

**Q.** And the T/C (T/C endpoint: mean survival time, dose: 200.0 mg/kg/injection, schedule: Q01DX001 (ip), vehicle: other)?
**A.** 92 % of control

**Q.** And the T/C (T/C endpoint: mean survival time, dose: 400.0 mg/kg/injection, schedule: Q01DX001 (ip), vehicle: other)?
**A.** 101 % of control

**Q.** Which T/C [2] does the source give for `C1CN1.C=O.COC(=O)CC(=O)OC` here?
**A.** 95 % of control

**Q.** And the T/C [3]?
**A.** 101 % of control

**Q.** And the T/C [4]?
**A.** 95 % of control

**Q.** Which T/C (T/C endpoint: mean survival time, dose: 100.0 mg/kg/injection, schedule: Q01DX009 (ip), vehicle: Klucel (hydroxypropylcellulose) (HPC)) does the source give for `O=[N+]([O-])c1cc([N+](=O)[O-])c2ccc3c([N+](=O)[O-])cc([N+](=O)[O-])c4ccc1c2c43` here?
**A.** 100 % of control

**Q.** And the T/C [2]?
**A.** 102 % of control

**Q.** What about the T/C (T/C endpoint: mean survival time, dose: 200.0 mg/kg/injection, schedule: Q01DX009 (ip), vehicle: Klucel (hydroxypropylcellulose) (HPC)) of the same compound?
**A.** 104 % of control [4 of 6 alive]

**Q.** What about the T/C [3] of the same compound?
**A.** 98 % of control

**Q.** And the T/C (T/C endpoint: mean survival time, dose: 400.0 mg/kg/injection, schedule: Q01DX009 (ip), vehicle: Klucel (hydroxypropylcellulose) (HPC))?
**A.** 96 % of control

**Q.** And the T/C [4]?
**A.** 96 % of control
